In PMC9914899:
Results are given in words; binding and its absence hold for the method and conditions named. In cells and extracts the contact can be indirect. Some results given as binding are weak or reduced against the parent protein; the word gives no strength.

Protein sequences, listed by entry. Tags and fused reporters are not part of them.
UniProt P17676: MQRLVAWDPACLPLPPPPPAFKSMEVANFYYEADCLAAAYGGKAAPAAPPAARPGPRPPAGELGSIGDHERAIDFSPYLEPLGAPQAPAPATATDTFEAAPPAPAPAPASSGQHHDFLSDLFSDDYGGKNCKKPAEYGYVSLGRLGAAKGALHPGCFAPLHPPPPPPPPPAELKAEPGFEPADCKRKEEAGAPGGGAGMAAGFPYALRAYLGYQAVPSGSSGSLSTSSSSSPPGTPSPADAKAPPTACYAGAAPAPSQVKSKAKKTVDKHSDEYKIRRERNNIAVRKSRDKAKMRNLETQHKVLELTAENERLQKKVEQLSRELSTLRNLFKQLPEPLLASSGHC
UniProt Q14209: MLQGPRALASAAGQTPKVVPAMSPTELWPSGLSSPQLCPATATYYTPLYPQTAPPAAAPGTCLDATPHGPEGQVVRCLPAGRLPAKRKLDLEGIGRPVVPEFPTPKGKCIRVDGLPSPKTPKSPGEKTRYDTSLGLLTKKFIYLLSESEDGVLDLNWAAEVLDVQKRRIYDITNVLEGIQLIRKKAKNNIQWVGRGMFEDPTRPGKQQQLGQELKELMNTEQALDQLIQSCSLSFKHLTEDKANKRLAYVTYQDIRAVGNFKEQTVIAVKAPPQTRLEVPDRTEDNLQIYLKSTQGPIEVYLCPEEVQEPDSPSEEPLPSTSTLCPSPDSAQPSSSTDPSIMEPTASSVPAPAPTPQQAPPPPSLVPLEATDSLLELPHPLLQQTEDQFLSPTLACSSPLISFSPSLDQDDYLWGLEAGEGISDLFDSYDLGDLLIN

Columns and labels:
[1] = biological target: CCAAT/enhancer binding protein β (human (endogenous in hESC-derived HPCs and LO2 cells)) (UniProt P17676); experiment: co-IP; lysate of LO2 cells (about 2 x 10^6 cells), pre-cleared with protein A/G agarose beads; IP overnight at 4 °C with mouse anti-human C/EBPβ antibody, then protein A/G agarose beads; immunoblot for E2F2 and C/EBPβ; non-specific IgG as negative control
[2] = biological target: CCAAT/enhancer binding protein β (human (endogenous in hESC-derived HPCs and LO2 cells)) (UniProt P17676); experiment: co-IP; lysate of HPCs on day 14 (about 2 x 10^6 cells), pre-cleared with protein A/G agarose beads; IP overnight at 4 °C with mouse anti-human C/EBPβ antibody, then protein A/G agarose beads; immunoblot for E2F2 and C/EBPβ; non-specific IgG as negative control

Substance: E2F2 (from UniProt Q14209 1-437)
- binding [1]: binds
- binding [2]: binds
